This is an account of results in paper PMC6041257.

The chains behind the UniProt entries cited, without tags or fusion partners.
UniProt P08151: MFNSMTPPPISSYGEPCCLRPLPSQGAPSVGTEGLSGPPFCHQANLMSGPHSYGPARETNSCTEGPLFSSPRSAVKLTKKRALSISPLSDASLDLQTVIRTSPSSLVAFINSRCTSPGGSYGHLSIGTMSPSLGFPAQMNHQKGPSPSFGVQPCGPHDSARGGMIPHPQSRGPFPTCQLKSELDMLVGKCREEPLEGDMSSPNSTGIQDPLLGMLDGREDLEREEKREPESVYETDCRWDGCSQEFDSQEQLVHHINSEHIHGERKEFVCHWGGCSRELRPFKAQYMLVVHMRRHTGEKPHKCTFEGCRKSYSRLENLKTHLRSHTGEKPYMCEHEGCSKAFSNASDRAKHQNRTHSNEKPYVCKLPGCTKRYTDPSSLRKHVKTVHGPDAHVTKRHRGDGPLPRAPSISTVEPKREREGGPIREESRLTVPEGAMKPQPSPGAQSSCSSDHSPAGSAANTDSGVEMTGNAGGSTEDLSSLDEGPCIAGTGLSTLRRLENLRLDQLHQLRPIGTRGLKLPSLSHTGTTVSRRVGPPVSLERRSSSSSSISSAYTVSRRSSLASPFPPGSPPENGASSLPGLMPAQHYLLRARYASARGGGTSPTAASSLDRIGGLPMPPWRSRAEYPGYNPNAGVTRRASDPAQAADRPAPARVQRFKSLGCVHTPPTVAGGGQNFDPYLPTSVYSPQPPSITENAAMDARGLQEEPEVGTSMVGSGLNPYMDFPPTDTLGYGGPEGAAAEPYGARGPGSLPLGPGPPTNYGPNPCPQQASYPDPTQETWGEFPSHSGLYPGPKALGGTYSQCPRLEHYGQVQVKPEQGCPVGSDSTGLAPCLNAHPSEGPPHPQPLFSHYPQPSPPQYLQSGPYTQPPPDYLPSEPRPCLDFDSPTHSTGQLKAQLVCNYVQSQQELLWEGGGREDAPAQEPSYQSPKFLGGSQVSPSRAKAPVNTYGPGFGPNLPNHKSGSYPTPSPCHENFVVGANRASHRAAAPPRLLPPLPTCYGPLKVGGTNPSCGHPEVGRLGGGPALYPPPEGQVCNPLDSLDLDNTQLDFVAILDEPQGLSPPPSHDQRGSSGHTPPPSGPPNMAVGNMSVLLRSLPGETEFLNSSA

These are yes or no findings as the source states them, for the method shown. In cells and extracts the contact can be indirect. Some binding calls cover weakened binding; strength is not graded here.

In assay [1] the target is GLI1 (transfected, wild type) (human) (UniProt P08151). As to the kind of experiment: co-IP; co-immunoprecipitation of tagged GLI1 with tagged MEKK2, MEKK3 or MEKK3-KD (Supplementary Figures S1h-S1l); lysates with anti-HA agarose or anti-Flag magnetic beads overnight at 4 °C; cells and bait not given.
Assay [2] deals with T1, SUFU (transfected, HEK293T) (UniProt Q9UMX1).
T1 sequence: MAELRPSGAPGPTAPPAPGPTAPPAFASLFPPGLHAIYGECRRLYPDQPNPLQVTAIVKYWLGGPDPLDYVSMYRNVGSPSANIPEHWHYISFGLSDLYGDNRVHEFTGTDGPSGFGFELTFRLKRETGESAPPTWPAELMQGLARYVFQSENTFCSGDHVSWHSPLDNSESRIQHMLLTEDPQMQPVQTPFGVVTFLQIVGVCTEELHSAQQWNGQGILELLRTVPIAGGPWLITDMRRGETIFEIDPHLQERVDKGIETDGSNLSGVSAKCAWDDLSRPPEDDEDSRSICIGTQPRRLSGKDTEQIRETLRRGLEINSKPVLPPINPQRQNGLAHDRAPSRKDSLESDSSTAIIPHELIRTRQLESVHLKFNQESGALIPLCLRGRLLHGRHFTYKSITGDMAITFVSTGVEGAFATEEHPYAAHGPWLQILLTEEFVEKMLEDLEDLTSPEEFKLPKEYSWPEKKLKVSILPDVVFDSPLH
Briefly: co-IP; HEK293T cells transfected with indicated plasmids (with or without MEKK3); lysates with anti-HA agarose or anti-Flag magnetic beads overnight at 4 °C.

For assay [3], the target named is GLI1-Flag (stable NIH3T3 cells, lentiviral) (human) (UniProt P08151). Briefly: co-IP; lysates of NIH3T3 cells stably expressing GLI1-Flag (lentivirus; control and MEKK2/3 DKO cells), immunoprecipitated by Flag, endogenous partners blotted; beads overnight at 4 °C.

B1: MEKK2 (transfected) (enzyme, UniProt Q9Y2U5 1-619)
chain: MDDQQALNSIMQDLAVLHKASRPALSLQETRKAKSSSPKKQNDVRVKFEHRGEKRILQFPRPVKLEDLRSKAKIAFGQSMDLHYTNNELVIPLTTQDDLDKAVELLDRSIHMKSLKILLVINGSTQATNLEPLPSLEDLDNTVFGAERKKRLSIIGPTSRDRSSPPPGYIPDELHQVARNGSFTSINSEGEFIPESMDQMLDPLSLSSPENSGSGSCPSLDSPLDGESYPKSRMPRAQSYPDNHQEFSDYDNPIFEKFGKGGTYPRRYHVSYHHQEYNDGRKTFPRARRTQGTSLRSPVSFSPTDHSLSTSSGSSIFTPEYDDSRIRRRGSDIDNPTLTVMDISPPSRSPRAPTNWRLGKLLGQGAFGRVYLCYDVDTGRELAVKQVQFDPDSPETSKEVNALECEIQLLKNLLHERIVQYYGCLRDPQEKTLSIFMEYMPGGSIKDQLKAYGALTENVTRKYTRQILEGVHYLHSNMIVHRDIKGANILRDSTGNVKLGDFGASKRLQTICLSGTGMKSVTGTPYWMSPEVISGEGYGRKADIWSVACTVVEMLTEKPPWAEFEAMAAIFKIATQPTNPKLPPHVSDYTRDFLKRIFVEAKLRPSADELLRHMFVHYH
Regarding B1, in assay [1], the binding result is “binds”.

B2: MEKK3 (transfected, wild type) (enzyme, UniProt Q99759 1-626)
chain: MDEQEALNSIMNDLVALQMNRRHRMPGYETMKNKDTGHSNRQSDVRIKFEHNGERRIIAFSRPVKYEDVEHKVTTVFGQPLDLHYMNNELSILLKNQDDLDKAIDILDRSSSMKSLRILLLSQDRNHNSSSPHSGVSRQVRIKASQSAGDINTIYQPPEPRSRHLSVSSQNPGRSSPPPGYVPERQQHIARQGSYTSINSEGEFIPETSEQCMLDPLSSAENSLSGSCQSLDRSADSPSFRKSRMSRAQSFPDNRQEYSDRETQLYDKGVKGGTYPRRYHVSVHHKDYSDGRRTFPRIRRHQGNLFTLVPSSRSLSTNGENMGLAVQYLDPRGRLRSADSENALSVQERNVPTKSPSAPINWRRGKLLGQGAFGRVYLCYDVDTGRELASKQVQFDPDSPETSKEVSALECEIQLLKNLQHERIVQYYGCLRDRAEKTLTIFMEYMPGGSVKDQLKAYGALTESVTRKYTRQILEGMSYLHSNMIVHRDIKGANILRDSAGNVKLGDFGASKRLQTICMSGTGMRSVTGTPYWMSPEVISGEGYGRKADVWSLGCTVVEMLTEKPPWAEYEAMAAIFKIATQPTNPQLPSHISEHGRDFLRRIFVEARQRPSAEELLTHHFAQLMY
On to B2, for which the binding entry in assay [2] and in assay [1] was “binds” throughout.

B3: MEKK3-KD (kinase-dead mutant, S526/T530 to Ala) (enzyme, UniProt Q99759 1-626)
chain: MDEQEALNSIMNDLVALQMNRRHRMPGYETMKNKDTGHSNRQSDVRIKFEHNGERRIIAFSRPVKYEDVEHKVTTVFGQPLDLHYMNNELSILLKNQDDLDKAIDILDRSSSMKSLRILLLSQDRNHNSSSPHSGVSRQVRIKASQSAGDINTIYQPPEPRSRHLSVSSQNPGRSSPPPGYVPERQQHIARQGSYTSINSEGEFIPETSEQCMLDPLSSAENSLSGSCQSLDRSADSPSFRKSRMSRAQSFPDNRQEYSDRETQLYDKGVKGGTYPRRYHVSVHHKDYSDGRRTFPRIRRHQGNLFTLVPSSRSLSTNGENMGLAVQYLDPRGRLRSADSENALSVQERNVPTKSPSAPINWRRGKLLGQGAFGRVYLCYDVDTGRELASKQVQFDPDSPETSKEVSALECEIQLLKNLQHERIVQYYGCLRDRAEKTLTIFMEYMPGGSVKDQLKAYGALTESVTRKYTRQILEGMSYLHSNMIVHRDIKGANILRDSAGNVKLGDFGASKRLQTICMSGTGMRAVTGAPYWMSPEVISGEGYGRKADVWSLGCTVVEMLTEKPPWAEYEAMAAIFKIATQPTNPQLPSHISEHGRDFLRRIFVEARQRPSAEELLTHHFAQLMY
B3: the binding result in assay [1] is “binds”.

B4: MEKK3 (endogenous, NIH3T3) (enzyme, UniProt Q61084 1-626)
chain: MDEQEALDSIMKDLVALQMSRRTRLSGYETMKNKDTGHPNRQSDVRIKFEHNGERRIIAFSRPVRYEDVEHKVTTVFGQPLDLHYMNNELSILLKNQDDLDKAIDILDRSSSMKSLRILLLSQDRNHTSSSPHSGVSRQVRIKPSQSAGDINTIYQAPEPRSRHLSVSSQNPGRSSPPPGYVPERQQHIARQGSYTSINSEGEFIPETSEQCMLDPLSSAENSLSGSCQSLDRSADSPSFRKSQMSRARSFPDNRKECSDRETQLYDKGVKGGTYPRRYHVSVHHKDYNDGRRTFPRIRRHQGNLFTLVPSSRSLSTNGENMGVAVQYLDPRGRLRSADSENALTVQERNVPTKSPSAPINWRRGKLLGQGAFGRVYLCYDVDTGRELASKQVQFDPDSPETSKEVSALECEIQLLKNLQHERIVQYYGCLRDRAEKILTIFMEYMPGGSVKDQLKAYGALTESVTRKYTRQILEGMSYLHSNMIVHRDIKGANILRDSAGNVKLGDFGASKRLQTICMSGTGIRSVTGTPYWMSPEVISGEGYGRKADVWSLGCTVVEMLTEKPPWAEYEAMAAIFKIATQPTNPQLPSHISEHGRDFLRRIFVEARQRPSAEELLTHHFAQLVY
In the case of B4, the binding result in assay [3] is on record as “binds”.

B5: MEKK2 (endogenous, NIH3T3) (enzyme, UniProt Q61083 1-619)
chain: MDDQQALNSIMQDLAVLHKASRPALSLQETRKAKPSSPKKQNDVRVKFEHRGEKRILQVTRPVKLEDLRSKSKIAFGQSMDLHYTNNELVIPLTTQDDLDKAVELLDRSIHMKSLKILLVVNGSTQATNLEPSPSPEDLNNTPLGAERKKRLSVVGPPNRDRSSPPPGYIPDILHQIARNGSFTSINSEGEFIPESMDQMLDPLSLSSPENSGSGSCPSLDSPLDGESYPKSRMPRAQSYPDNHQEFTDYDNPIFEKFGKGGTYPRRYHVSYHHQEYNDGRKTFPRARRTQGTSFRSPVSFSPTDHSLSTSSGSSVFTPEYDDSRIRRRGSDIDNPTLTVTDISPPSRSPRAPTNWRLGKLLGQGAFGRVYLCYDVDTGRELAVKQVQFNPESPETSKEVNALECEIQLLKNLLHERIVQYYGCLRDPQEKTLSIFMELSPGGSIKDQLKAYGALTENVTRKYTRQILEGVHYLHSNMIVHRDIKGANILRDSTGNIKLGDFGASKRLQTICLSGTGMKSVTGTPYWMSPEVISGEGYGRKADIWSVACTVVEMLTEKPPWAEFEAMAAIFKIATQPTNPKLPPHVSDYTRDFLKRIFVEAKLRPSAEELLRHMFVHYH
Take B5: the binding result in assay [3] was “binds”.

B6: SUFU (endogenous, NIH3T3) (protein, UniProt Q9Z0P7 1-484)
chain: MAELRPSVAPGPAAPPASGPSAPPAFASLFPPGLHAIYGECRRLYPDQPNPLQVTAIVKYWLGGPDPLDYVSMYRNMGSPSANIPEHWHYISFGLSDLYGDNRVHEFTGTDGPSGFGFELTFRLKRETGESAPPTWPAELMQGLARYVFQSENTFCSGDHVSWHSPLDNSESRIQHMLLTEDPQMQPVRTPFGVVTFLQIVGVCTEELHSAQQWNGQGILELLRTVPIAGGPWLITDMRRGETIFEIDPHLQERVDKGIETDGSNLSGVSAKCAWDDLSRPPEDEEDSRSICLGTQPRRLSGKDTEQIRETLRRGLEINSKPVLPPINSQRQNGLTHDRAPSRKDSLGSDSSTAIIPHELIRTRQLESVHLKFNQESGALIPLCLRGRLLHGRHFTYKSITGDMAITFVSTGVEGAFATEEHPYAAHGPWLQILLTEEFVEKMLEDLEDLTSPEEFKLPKEYSWPEKKLKVSILPDVVFDSPLH
Regarding B6, in assay [3], the binding entry was “binds”.
